The list shows a part of the results.

This assay deals with T1, OsSMF1 (Oryza sativa, UniProt Q6ZLB0 1-436).
T1 sequence: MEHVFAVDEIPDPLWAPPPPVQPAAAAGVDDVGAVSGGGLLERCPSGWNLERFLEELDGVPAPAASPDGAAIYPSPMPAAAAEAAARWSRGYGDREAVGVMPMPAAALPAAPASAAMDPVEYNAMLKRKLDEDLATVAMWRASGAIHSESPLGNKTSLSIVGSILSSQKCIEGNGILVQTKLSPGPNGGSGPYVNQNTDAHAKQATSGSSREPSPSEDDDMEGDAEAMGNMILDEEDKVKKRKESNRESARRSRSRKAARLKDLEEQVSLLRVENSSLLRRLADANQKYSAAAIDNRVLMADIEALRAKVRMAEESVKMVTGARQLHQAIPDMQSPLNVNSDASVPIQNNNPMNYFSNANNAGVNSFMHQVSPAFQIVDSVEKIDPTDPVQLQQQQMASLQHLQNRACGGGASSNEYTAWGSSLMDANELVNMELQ
The experiment in a line: protein-binding microarray (RPBM); PBS, 2% BSA, 51.3 ng/ul salmon testes DNA, 50 uM zinc acetate, 200 nM TF, 25 C, 1 h; high values mean tight binding. Particulars: protein: recombinant; tags: N-terminal polyhistidine and DsRed monomer fusion (pET32a); chain copies: 2; label: CyDye5-dUTP incorporated in the synthesized complementary strand; 3' TTTTT single-stranded linker to array surface; dsDNA, one strand shown. An outline of the steps:
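A custom Agilent array was converted to double-stranded form by primer extension with Cy5-dUTP and blocked with 2% BSA. Protein at 200 nM in PBS with 2% BSA, salmon testes DNA and 50 µM zinc acetate was applied for 1 h at 25 °C, followed by washing. The proteins were polyhistidine–DsRed N-terminal fusions of transcription factors, expressed in E. coli BL21-CodonPlus and Ni–NTA-purified. The binding signal is per-feature fluorescence intensity (arbitrary units) from an Axon 4000B scanner.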
Regarding “CCTTATGTCTTCAGCGTCCTACGTGTAAGCTAGGGAAACCCGGAGTCACCTAGTGCAG”, the binding signal is 6260 fluorescence intensity (a.u.).

“AGGCTGTGTTTAGTTCCACGTCAAAATTAGAAGTTTGAAGCGGAGTCACCTAGTGCAG”: the binding signal was 4270 fluorescence intensity (a.u.).

As for “GAGCGAGGGGCCTGGTCGGCGAGGGTGAGCAGCCCAGTGTCGGAGTCACCTAGTGCAG”, the binding signal was 25200 fluorescence intensity (a.u.).

With “GCTTCCGACGTGCTTCTGCCATTCATTACACCATGTTTCTCGGAGTCACCTAGTGCAG”, the binding signal is 3980 fluorescence intensity (a.u.).

Regarding “AATCAGCCGGACATGTTTGGCTGGGTAAAACAATACTTGTCGGAGTCACCTAGTGCAG”, the binding signal was 3230 fluorescence intensity (a.u.).

As for “AGCAGCCAGAACTTACTTATGCAGAAGCTAGTCATCCATGCGGAGTCACCTAGTGCAG”, the binding signal is 4670 fluorescence intensity (a.u.).

In the case of “CGAGATCTGCCACCGCCGTTCTTGTGCTCTTCTTGGTCTTCGGAGTCACCTAGTGCAG”, the binding signal was 3300 fluorescence intensity (a.u.).

In the case of “GTGGTGCTACAGTAAATATTTGCTAATGATAGATTAATTACGGAGTCACCTAGTGCAG”, the binding signal is 7300 fluorescence intensity (a.u.).

With “CCATCTCTATTATGGTCATCCGGAATAAGGTTTTCATCTGCGGAGTCACCTAGTGCAG”, the binding signal was 22100 fluorescence intensity (a.u.).

“GCTTCGGAGGAGCCAGAATACAAAAGTTTTATCACCACCACGGAGTCACCTAGTGCAG”: the binding signal is 3480 fluorescence intensity (a.u.).

On to “AAGTCTATTTTGCTTTCTCAACTCTTGCTCTTGAGTGAATCGGAGTCACCTAGTGCAG”, for which the binding signal is 3860 fluorescence intensity (a.u.).

As to “CCGGCCTCACCCACCTCGCCGTCACTCCCCTCGACCTCGTCGGAGTCACCTAGTGCAG”, the binding signal is 3470 fluorescence intensity (a.u.).

For the sequence “TCTTGCTACCAGTCACACCTCACTTACTGACGTAAACAGCCGGAGTCACCTAGTGCAG”, the binding signal was 3280 fluorescence intensity (a.u.).

Turning to “GAGGAATCGAAGTTGGGCATGCGTGCGTGGAGATCCATGACGGAGTCACCTAGTGCAG”, the binding signal is 4140 fluorescence intensity (a.u.).

As for “GGATCTTGAAGATGATGACAGACCCCGTGGACTGTTGCAGCGGAGTCACCTAGTGCAG”, the binding signal is 3920 fluorescence intensity (a.u.).

Turning to “GAATTTGCTATAGTTAGGCAGCAACAGCAACGGCCACAGCCGGAGTCACCTAGTGCAG”, the binding signal is 19700 fluorescence intensity (a.u.).

For “TTATCTACTCAAGTGACTTGTACTTATCCTCGACTCTCTCCGGAGTCACCTAGTGCAG”, the binding signal was 3140 fluorescence intensity (a.u.).

Consider “CCGTGCGCATGAAGAGGACATTGGATGTTGAGTCACGGAACGGAGTCACCTAGTGCAG”, for which the binding signal is 5760 fluorescence intensity (a.u.).

Consider “GCTCGTGAGCAGCTCACGAGCCAGCTCGAGCTGACTCGTTCGGAGTCACCTAGTGCAG”, for which the binding signal is 3160 fluorescence intensity (a.u.).

For the sequence “GAGAAAAGATAAACTTATTTGTATCGCGTTGACACGGACGCGGAGTCACCTAGTGCAG”, the binding signal was 3450 fluorescence intensity (a.u.).

As to “CGCTCCGCATTCGAGGACGTGTGGCGTGGCATTTGTGCGTCGGAGTCACCTAGTGCAG”, the binding signal is 8440 fluorescence intensity (a.u.).

For the sequence “GCTAAGCTCCATCCACGTCCACATTAATGTCAATTATACACGGAGTCACCTAGTGCAG”, the binding signal was 3710 fluorescence intensity (a.u.).

On to “TCTATATGTGTACAAAATACTTCTTCCATTATATATATTGCGGAGTCACCTAGTGCAG”, for which the binding signal was 3210 fluorescence intensity (a.u.).

“TTGTGCTATATCCCTAGCTCGAGTTGGCGTGTTAAACCACCGGAGTCACCTAGTGCAG”: the binding signal is 3820 fluorescence intensity (a.u.).

Regarding “CGAATCAGTTTCGCCCACGTGGAATGGCCAGAGACGCCCGCGGAGTCACCTAGTGCAG”, the binding signal was 5290 fluorescence intensity (a.u.).

As to “GCAGCCGGCCATCGTCGTTGTCGTCGCGGGCTTGACGTGGCGGAGTCACCTAGTGCAG”, the binding signal is 10700 fluorescence intensity (a.u.).

In the case of “AACCACACACACAAATCCAGCGCAGCAACAGATCTATTGACGGAGTCACCTAGTGCAG”, the binding signal is 3900 fluorescence intensity (a.u.).

Turning to “TGATATGATGGAGCTGACGCATCAGTTTCAGAAACTGTTGCGGAGTCACCTAGTGCAG”, the binding signal is 10600 fluorescence intensity (a.u.).

As to “TTGTCCGACTAGAACTCTACCGATTCTAGTTGCAGCCGATCGGAGTCACCTAGTGCAG”, the binding signal is 4090 fluorescence intensity (a.u.).

Take “ATCATCTATGCACCCAAATTCAATATTTAAATGTCCATTCCGGAGTCACCTAGTGCAG”: the binding signal was 20800 fluorescence intensity (a.u.).

As for “AAACGCCAACGCCATACTCCACCTGACCTCACACTCGCACCGGAGTCACCTAGTGCAG”, the binding signal was 3290 fluorescence intensity (a.u.).

As to “TCTACCTTCAAAAGGTGGGTATGTACGTGTCCTGGTCACTCGGAGTCACCTAGTGCAG”, the binding signal was 4320 fluorescence intensity (a.u.).

On to “ACTGAGAGTCTGAAAACCAACCAGCAAATCAAGCTTTGTGCGGAGTCACCTAGTGCAG”, for which the binding signal was 3680 fluorescence intensity (a.u.).

Turning to “AATCTCAGCCGCTTGAAGAGGGAGAGAGAGAGATGGGAAGCGGAGTCACCTAGTGCAG”, the binding signal was 31000 fluorescence intensity (a.u.).

Consider “TAGCCTGTTACATCATCAGAACATGCATGCAAGGCACTTCCGGAGTCACCTAGTGCAG”, for which the binding signal is 3480 fluorescence intensity (a.u.).

In the case of “TGAACAAGTTTTACCACTTGCTTTCCTGTGTTTAATGCCACGGAGTCACCTAGTGCAG”, the binding signal is 3300 fluorescence intensity (a.u.).

Consider “AACACCTCCCGGTCATGCACCCTGCGTGGACTAACCACCCCGGAGTCACCTAGTGCAG”, for which the binding signal was 4250 fluorescence intensity (a.u.).

Turning to “ACAAGCTAACACACACATGAACACAAAATCTGACGGAACCCGGAGTCACCTAGTGCAG”, the binding signal is 3500 fluorescence intensity (a.u.).

With “TGAATACGTCCAGATTCATTAGATGAGGTAATATCTCATTCGGAGTCACCTAGTGCAG”, the binding signal was 3290 fluorescence intensity (a.u.).

On to “TTCTGATATAATCTGACTTGTACAAAGCAAATCGCCAATTCGGAGTCACCTAGTGCAG”, for which the binding signal is 4240 fluorescence intensity (a.u.).

In the case of “CATGGGTCGGGCCTTTTGGCCAACTATAGCGCCAGCTCACCGGAGTCACCTAGTGCAG”, the binding signal is 4960 fluorescence intensity (a.u.).

With “TCTTCTTGTAGAGGGCTATGAATGATCCTGACTTTTATCTCGGAGTCACCTAGTGCAG”, the binding signal is 3360 fluorescence intensity (a.u.).

For “TTCTCCTCGGCCTCCATGTGCACGTCCATGTGGCGCATGGCGGAGTCACCTAGTGCAG”, the binding signal is 4220 fluorescence intensity (a.u.).

Turning to “AGGCACATAAACTTGTTTGATTGTTGTGCAAAAGACTTGACGGAGTCACCTAGTGCAG”, the binding signal is 37000 fluorescence intensity (a.u.).

On to “TCCATGCCACCGTCGCCGTCGTTTGCGCGAAAGCCCCTGCCGGAGTCACCTAGTGCAG”, for which the binding signal was 3180 fluorescence intensity (a.u.).

With “GCCGCCACGACACCCTTGTCCTCCTGCTCCGTAGCAGCCTCGGAGTCACCTAGTGCAG”, the binding signal was 5410 fluorescence intensity (a.u.).

Regarding “CGTTGTGAGTCAAACTTTTATCAGATCATGTGTTACACCACGGAGTCACCTAGTGCAG”, the binding signal is 7280 fluorescence intensity (a.u.).

As to “GTTCCATTCCAATCCCATGAAAGCAACAGCGCTGCCTATCCGGAGTCACCTAGTGCAG”, the binding signal was 35800 fluorescence intensity (a.u.).

Regarding “TTTATTATGACTTGATTCGTCATCAAATGTTCTTTAAGCACGGAGTCACCTAGTGCAG”, the binding signal was 5230 fluorescence intensity (a.u.).

Take “CCAGCAATCCTTGGTGACGTTGTGGCCGGCCACCTCCTCGCGGAGTCACCTAGTGCAG”: the binding signal was 6280 fluorescence intensity (a.u.).

As to “TCTGGAACAAACTGTTGCCACTTGCAGGCCTGCACGTCATCGGAGTCACCTAGTGCAG”, the binding signal was 7960 fluorescence intensity (a.u.).

On to “CCATGCACGCACGCCGCGACGCCACACGTGAAAGCTCCCACGGAGTCACCTAGTGCAG”, for which the binding signal was 28000 fluorescence intensity (a.u.).

Take “CGTTGTTTGTTACTAATGAGTCAAGTTGGAGATAGCTTGGCGGAGTCACCTAGTGCAG”: the binding signal was 24500 fluorescence intensity (a.u.).

As for “GACTCGAGTCGAGAGAGACTCGTCGTCATTAGCCATCACTCGGAGTCACCTAGTGCAG”, the binding signal was 3540 fluorescence intensity (a.u.).
